Measurements reported in patent publication US11230581B2, “Peptides and combination of peptides for use in immunotherapy against ovarian cancer and other cancers” (Immatics Biotechnologies GmbH, priority 2015, dated 2022).

Key:
[1] = test system: source genes of the peptides (mRNA) in ovarian cancer vs normal tissues; experiment: Expression profiling of genes encoding the peptides (RNAseq, expression score); set-up: species or system human; key: +++: very highly over-expressed in tumors compared to a panel of normal tissues; ++: highly over-expressed in tumors compared to a panel of normal tissues; +: over-expressed in tumors compared to a panel of normal tissues; conditions: source gene over-expression in tumors compared to a panel of normal tissues
[2] = test system: ovarian cancer samples; experiment: Relative LC-MS quantitation of HLA-presented peptides: presentation and over-presentation on ovarian cancer vs a panel of normal tissues (presentation score); set-up: species or system human; key: +++: very highly over-presented on tumors compared to a panel of normal tissues; ++: highly over-presented on tumors compared to a panel of normal tissues; +: over-presented on tumors compared to a panel of normal tissues; conditions: over-presentation on tumors compared to a panel of normal tissues
[3] = test system: additional tumor types; experiment: LC-MS detection and over-presentation of the peptides on additional tumor types, cell lines and primary cultures; set-up: species or system human; conditions: for Other relevant organs/ cancerous diseases: Table 4A: additional tumor types on which the peptide was found, over-presented on more than 5% of measured tumor samples, or presented on more than 5% with ratio of geometric means tumor vs normal tissues larger than 3
[4] = amendment of Table 4: additional tumor types showing over-presentation (including specific presentation) on more than 5% of measured tumor samples, or presentation on more than 5% with ratio of geometric means tumor vs normal tissues larger than 3
[5] = additional tumor types with over-presentation on more than 5% of the measured tumor samples, or presentation on more than 5% with ratio of geometric means tumor vs normal tissues larger than 3

81: peptide found in NUP205 (gene looked up) (FLFSQLQYL; listed as Homo sapiens) [compound 81]
Gene Expression (expression score) [1]: + | Peptide Presentation (presentation score) [2]: +++ | Additional organs/cancerous diseases [3, 4]: Gallbladder Cancer and Bile Duct Cancer, AML

116: peptide found in IDO1 (gene looked up) (YHIDEEVGF; listed as Homo sapiens) [compound 116]
Gene Expression (expression score) [1]: +++ | Peptide Presentation (presentation score) [2]: +++

126: peptide found in MCM2 (gene looked up) (VLAYFLPEA; listed as Homo sapiens) [compound 126]
Gene Expression (expression score) [1]: + | Peptide Presentation (presentation score) [2]: + | Other relevant organs/ cancerous diseases [3]: NSCLC, SCLC, CRC, PC, Leukemia, Esophageal Cancer, Uterine Cancer | Additional organs/cancerous diseases [3, 4]: CLL, BRCA, Urinary Bladder Cancer, Gallbladder Cancer and Bile Duct Cancer, AML, NHL, HNSCC

171: peptide found in KLK7 (gene looked up) (LLLPLQILL; listed as Homo sapiens) [compound 171]
Gene Expression (expression score) [1]: +++ | Peptide Presentation (presentation score) [2]: +++ | Other relevant organs/ cancerous diseases [3]: SCLC | Additional organs/cancerous diseases [3, 4]: HNSCC

173: peptide found in KIF15 (gene looked up) (LLDSASAGLYL; listed as Homo sapiens) [compound 173]
Gene Expression (expression score) [1]: +++ | Peptide Presentation (presentation score) [2]: +++ | Additional organs/cancerous diseases [3, 4]: SCLC, Uterine Cancer, AML, NHL

183: peptide found in RNF213 (gene looked up) (FGLDLVTEL; listed as Homo sapiens) [compound 183]
Gene Expression (expression score) [1]: ++ | Peptide Presentation (presentation score) [2]: ++ | Other relevant organs/ cancerous diseases [3]: NSCLC, SCLC, RCC, GC, PC, Leukemia, BrCa, Melanoma | Additional organs/cancerous diseases [3, 4]: CLL, Urinary Bladder Cancer, Uterine Cancer, AML, NHL, HNSCC

258: peptide found in NCAPD2 (gene looked up) (ELAERVPAI; listed as Homo sapiens) [compound 258]
Gene Expression (expression score) [1]: ++ | Other relevant organs/ cancerous diseases [3]: Esophageal Cancer | Additional organs/cancerous diseases [3, 5]: CLL, Urinary Bladder Cancer, Gallbladder Cancer and Bile Duct Cancer, AML, NHL, HNSCC

339: peptide found in HDGF (gene looked up) (GLWEIENNPTVKA; listed as Homo sapiens) [compound 339]
Gene Expression (expression score) [1]: + | Other relevant organs/ cancerous diseases [3]: HCC, Melanoma, Endometrium | Additional organs/cancerous diseases [3, 5]: Gallbladder Cancer and Bile Duct Cancer

371: peptide found in RNF213 (gene looked up) (FLQAHLHTA; listed as Homo sapiens) [compound 371]
Gene Expression (expression score) [1]: ++ | Other relevant organs/ cancerous diseases [3]: BrCa

426: peptide found in NCAPD2 (gene looked up) (RLADKSVLV; listed as Homo sapiens) [compound 426]
Gene Expression (expression score) [1]: + | Other relevant organs/ cancerous diseases [3]: Colon, Rectum | Additional organs/cancerous diseases [3, 5]: BRCA, AML

484: peptide found in KIF15 (gene looked up) (SLIEKVTQL; listed as Homo sapiens) [compound 484]
Gene Expression (expression score) [1]: +++ | Other relevant organs/ cancerous diseases [3]: HCC | Additional organs/cancerous diseases [3, 5]: SCLC, CRC, CLL, BRCA, Melanoma, Esophageal Cancer, Urinary Bladder Cancer, Uterine Cancer, AML, NHL

589 (KLYPQLPAEI; listed as Homo sapiens) [compound 589]
Peptide Presentation (presentation score) [2]: + | Other relevant organs/ cancerous diseases [3]: NSCLC, SCLC, Brain Cancer, HCC, Leukemia, MCC, Melanoma, Esophageal Cancer | Additional organs/cancerous diseases [3, 5]: CLL, BRCA, Urinary Bladder Cancer

590 (SLIEKLWQT; listed as Homo sapiens) [compound 590]
Peptide Presentation (presentation score) [2]: + | Other relevant organs/ cancerous diseases [3]: SCLC, Brain Cancer | Additional organs/cancerous diseases [3, 5]: Uterine Cancer, AML

591 (SMAELDIKL; listed as Homo sapiens) [compound 591]
Peptide Presentation (presentation score) [2]: ++ | Other relevant organs/ cancerous diseases [3]: Leukemia, Esophageal Cancer, Endometrium | Additional organs/cancerous diseases [3, 5]: AML, HNSCC

593 (GLPRFGIEMV; listed as Homo sapiens) [compound 593]
Peptide Presentation (presentation score) [2]: + | Other relevant organs/ cancerous diseases [3]: Brain Cancer

597 (KLLEGQVIQL; listed as Homo sapiens) [compound 597]
Peptide Presentation (presentation score) [2]: + | Other relevant organs/ cancerous diseases [3]: NSCLC, SCLC, CRC, HCC, BrCa | Additional organs/cancerous diseases [3, 5]: CLL, Melanoma, Gallbladder Cancer and Bile Duct Cancer, AML

599 (YLLNDASLISV; listed as Homo sapiens) [compound 599]
Peptide Presentation (presentation score) [2]: ++ | Other relevant organs/ cancerous diseases [3]: NSCLC, CRC, HCC, Melanoma, Uterine Cancer | Additional organs/cancerous diseases [3, 5]: SCLC

601 (SAFPFPVTV; listed as Homo sapiens) [compound 601]
Peptide Presentation (presentation score) [2]: + | Other relevant organs/ cancerous diseases [3]: Stomach, Leukemia, Esophageal Cancer | Additional organs/cancerous diseases [3, 5]: CLL, Gallbladder Cancer and Bile Duct Cancer, AML

602: peptide found in ERMP1 (gene looked up) (YLLEQIKLIEV; listed as Homo sapiens) [compound 602]
Gene Expression (expression score) [1]: ++ | Other relevant organs/ cancerous diseases [3]: NSCLC, SCLC

603 (FLIEPEHVNTV; listed as Homo sapiens) [compound 603]
Peptide Presentation (presentation score) [2]: + | Other relevant organs/ cancerous diseases [3]: HCC, PC, Leukemia, Melanoma | Additional organs/cancerous diseases [3, 5]: CLL

606 (ALWETEVYI; listed as Homo sapiens) [compound 606]
Peptide Presentation (presentation score) [2]: ++ | Other relevant organs/ cancerous diseases [3]: SCLC, Brain Cancer, HCC, PrC

610 (LLAPTPYIIGV; listed as Homo sapiens) [compound 610]
Peptide Presentation (presentation score) [2]: + | Other relevant organs/ cancerous diseases [3]: NSCLC, SCLC, RCC, Brain Cancer, CRC, HCC, PrC, Leukemia, BrCa, MCC, Melanoma, Esophageal Cancer, Urinary bladder Cancer, Gallbladder Cancer, Bile Duct Cancer

613 (RLLPPGAVVAV; listed as Homo sapiens) [compound 613]
Peptide Presentation (presentation score) [2]: ++ | Other relevant organs/ cancerous diseases [3]: NSCLC, SCLC, HCC | Additional organs/cancerous diseases [3, 5]: CLL, BRCA, Urinary Bladder Cancer, Gallbladder Cancer and Bile Duct Cancer, HNSCC

616: peptide found in TRIP13 (gene looked up) (VLIDEVESL; listed as Homo sapiens) [compound 616]
Gene Expression (expression score) [1]: ++ | Other relevant organs/ cancerous diseases [3]: NSCLC, SCLC, RCC, GC, BrCa, Melanoma, Esophageal Cancer, Urinary bladder Cancer | Additional organs/cancerous diseases [3, 5]: CRC, Uterine Cancer, Gallbladder Cancer and Bile Duct Cancer, AML, NHL, HNSCC

618 (VLFDSESIGIYV; listed as Homo sapiens) [compound 618]
Peptide Presentation (presentation score) [2]: + | Other relevant organs/ cancerous diseases [3]: SCLC, Melanoma

619 (ALQDRVPLA; listed as Homo sapiens) [compound 619]
Peptide Presentation (presentation score) [2]: + | Other relevant organs/ cancerous diseases [3]: Brain Cancer, CRC, Esophageal Cancer, Uterine Cancer | Additional organs/cancerous diseases [3, 5]: BRCA, Gallbladder Cancer and Bile Duct Cancer

625 (VVLEGASLETV; listed as Homo sapiens) [compound 625]
Peptide Presentation (presentation score) [2]: + | Other relevant organs/ cancerous diseases [3]: SCLC, Melanoma | Additional organs/cancerous diseases [3, 5]: CLL, Urinary Bladder Cancer

626 (LLMATILHL; listed as Homo sapiens) [compound 626]
Peptide Presentation (presentation score) [2]: ++ | Other relevant organs/ cancerous diseases [3]: SCLC, Melanoma, Urinary bladder Cancer, Gallbladder Cancer, Bile Duct Cancer | Additional organs/cancerous diseases [3, 5]: CLL, AML, NHL, HNSCC

627 (KLLETELLQEI; listed as Homo sapiens) [compound 627]
Peptide Presentation (presentation score) [2]: + | Other relevant organs/ cancerous diseases [3]: NSCLC, SCLC, CRC, HCC, MCC, Melanoma | Additional organs/cancerous diseases [3, 5]: CLL, Urinary Bladder Cancer

630 (LLSHVIVAL; listed as Homo sapiens) [compound 630]
Peptide Presentation (presentation score) [2]: + | Other relevant organs/ cancerous diseases [3]: PC, Leukemia | Additional organs/cancerous diseases [3, 5]: CLL, Gallbladder Cancer and Bile Duct Cancer, NHL

637 (SIYGGFLLGV; listed as Homo sapiens) [compound 637]
Peptide Presentation (presentation score) [2]: ++ | Other relevant organs/ cancerous diseases [3]: NSCLC, SCLC, HCC, PrC, BrCa, Uterine Cancer | Additional organs/cancerous diseases [3, 5]: Urinary Bladder Cancer, Gallbladder Cancer and Bile Duct Cancer, HNSCC

638 (KLIQESPTV; listed as Homo sapiens) [compound 638]
Peptide Presentation (presentation score) [2]: + | Other relevant organs/ cancerous diseases [3]: SCLC, HCC, Prostate | Additional organs/cancerous diseases [3, 5]: Gallbladder Cancer and Bile Duct Cancer, AML

639 (SLFQNCFEL; listed as Homo sapiens) [compound 639]
Peptide Presentation (presentation score) [2]: + | Other relevant organs/ cancerous diseases [3]: Leukemia | Additional organs/cancerous diseases [3, 5]: CLL, Melanoma, Uterine Cancer, NHL, HNSCC

640 (YLFSEALNAA; listed as Homo sapiens) [compound 640]
Peptide Presentation (presentation score) [2]: + | Other relevant organs/ cancerous diseases [3]: SCLC, GC, CRC, HCC, PrC, BrCa, MCC, Esophageal Cancer, Urinary bladder Cancer, Uterine Cancer, Gallbladder Cancer, Bile Duct Cancer

For some of these results: Expression grades refer to the transcript from which the peptide derives; gene names, where given, were looked up from the sequence.
